These are yes or no findings as the source states them, for the method shown. Binding seen in cells or lysates may run through a third protein. These calls come from enrichment with a bait or labelling near it, and not all partners need be listed.
Target: EML1-3DDK fusion protein (echinoderm microtubule associated protein like 1, mouse) (mouse) (UniProt Q05BC3)
Test: affinity purification with mass spectrometry; IP of EML1-3DDK from lysate of transfected HEK293 cells with anti-FLAG (DDK) M2 antibody (Pierce Crosslink Immunoprecipitation Kit); IP products of two independent experiments resolved on 10% SDS-PAGE, in-gel trypsin digestion, LC-ESI-MS/MS, search against the human UniProt database

Protein sequences, listed by entry. Tags and fused reporters are not part of them.
UniProt Q05BC3: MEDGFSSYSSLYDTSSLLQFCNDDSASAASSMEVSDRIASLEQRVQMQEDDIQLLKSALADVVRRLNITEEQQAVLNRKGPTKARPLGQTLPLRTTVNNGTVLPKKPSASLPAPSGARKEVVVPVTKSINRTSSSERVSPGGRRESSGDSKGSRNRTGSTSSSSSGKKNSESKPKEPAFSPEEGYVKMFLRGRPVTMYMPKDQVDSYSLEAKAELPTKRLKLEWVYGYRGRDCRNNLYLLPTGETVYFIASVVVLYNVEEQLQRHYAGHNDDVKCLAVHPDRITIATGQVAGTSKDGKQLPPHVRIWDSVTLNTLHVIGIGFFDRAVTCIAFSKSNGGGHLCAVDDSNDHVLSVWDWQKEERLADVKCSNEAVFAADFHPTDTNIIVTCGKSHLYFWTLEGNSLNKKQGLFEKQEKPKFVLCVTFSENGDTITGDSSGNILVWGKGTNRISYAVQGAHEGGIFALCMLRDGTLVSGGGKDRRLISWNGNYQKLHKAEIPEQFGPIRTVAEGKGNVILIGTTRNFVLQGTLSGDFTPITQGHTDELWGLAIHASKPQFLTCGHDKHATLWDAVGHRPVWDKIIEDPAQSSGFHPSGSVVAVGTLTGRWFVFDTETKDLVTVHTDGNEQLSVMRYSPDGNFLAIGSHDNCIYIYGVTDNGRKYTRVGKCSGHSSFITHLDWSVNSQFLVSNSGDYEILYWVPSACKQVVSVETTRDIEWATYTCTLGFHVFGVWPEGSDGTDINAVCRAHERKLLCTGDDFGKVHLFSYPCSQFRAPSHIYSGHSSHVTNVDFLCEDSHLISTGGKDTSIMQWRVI

Row | binding | Binder
1 | binds | EML4 (protein, UniProt Q9HC35 1-981) MDGFAGSLDDSISAASTSDVQDRLSALESRVQQQEDEITVLKAALADVLRRLAISEDHVASVKKSVSSKGQPSPRAVIPMSCITNGSGANRKPSHTSAVSIAGKETLSSAAKSGTEKKKEKPQGQREKKEESHSNDQSPQIRASPSPQPSSQPLQIHRQTPESKNATPTKSIKRPSPAEKSHNSWENSDDSRNKLSKIPSTPKLIPKVTKTADKHKDVIINQEGEYIKMFMRGRPITMFIPSDVDNYDDIRTELPPEKLKLEWAYGYRGKDCRANVYLLPTGKIVYFIASVVVLFNYEERTQRHYLGHTDCVKCLAIHPDKIRIATGQIAGVDKDGRPLQPHVRVWDSVTLSTLQIIGLGTFERGVGCLDFSKADSGVHLCIIDDSNEHMLTVWDWQKKAKGAEIKTTNEVVLAVEFHPTDANTIITCGKSHIFFWTWSGNSLTRKQGIFGKYEKPKFVQCLAFLGNGDVLTGDSGGVMLIWSKTTVEPTPGKGPKGVYQISKQIKAHDGSVFTLCQMRNGMLLTGGGKDRKIILWDHDLNPEREIEVPDQYGTIRAVAEGKADQFLVGTSRNFILRGTFNDGFQIEVQGHTDELWGLATHPFKDLLLTCAQDRQVCLWNSMEHRLEWTRLVDEPGHCADFHPSGTVVAIGTHSGRWFVLDAETRDLVSIHTDGNEQLSVMRYSIDGTFLAVGSHDNFIYLYVVSENGRKYSRYGRCTGHSSYITHLDWSPDNKYIMSNSGDYEILYWDIPNGCKLIRNRSDCKDIDWTTYTCVLGFQVFGVWPEGSDGTDINALVRSHNRKVIAVADDFCKVHLFQYPCSKAKAPSHKYSAHSSHVTNVSFTHNDSHLISTGGKDMSIIQWKLVEKLSLPQNETVADTTLTKAPVSSTESVIQSNTPTPPPSQPLNETAEEESRISSSPTLLENSLEQTVEPSEDHSEEESEEGSGDLGEPLYEEPCNEISKEQAKATLLEDQQDPSPSS
2 | binds | EML2 (protein, UniProt O95834 1-649) MSSFGAGKTKEVIFSVEDGSVKMFLRGRPVPMMIPDELAPTYSLDTRSELPSCRLKLEWVYGYRGRDCRANLYLLPTGEIVYFVASVAVLYSVEEQRQRHYLGHNDDIKCLAIHPDMVTIATGQVAGTTKEGKPLPPHVRIWDSVSLSTLHVLGLGVFDRAVCCVGFSKSNGGNLLCAVDESNDHMLSVWDWAKETKVVDVKCSNEAVLVATFHPTDPTVLITCGKSHIYFWTLEGGSLSKRQGLFEKHEKPKYVLCVTFLEGGDVVTGDSGGNLYVWGKGGNRITQAVLGAHDGGVFGLCALRDGTLVSGGGRDRRVVLWGSDYSKLQEVEVPEDFGPVRTVAEGHGDTLYVGTTRNSILQGSVHTGFSLLVQGHVEELWGLATHPSRAQFVTCGQDKLVHLWSSDSHQPLWSRIIEDPARSAGFHPSGSVLAVGTVTGRWLLLDTETHDLVAIHTDGNEQISVVSFSPDGAYLAVGSHDNLVYVYTVDQGGRKVSRLGKCSGHSSFITHLDWAQDSSCFVTNSGDYEILYWDPATCKQITSADAVRNMEWATATCVLGFGVFGIWSEGADGTDINAVARSHDGKLLASADDFGKVHLFSYPCCQPRALSHKYGGHSSHVTNVAFLWDDSMALTTGGKDTSVLQWRVV

Reference: article PMC8194061
